# Results reported in publication PMC10450186.
# The chains behind the UniProt entries cited, without tags or fusion partners.
# UniProt P15927: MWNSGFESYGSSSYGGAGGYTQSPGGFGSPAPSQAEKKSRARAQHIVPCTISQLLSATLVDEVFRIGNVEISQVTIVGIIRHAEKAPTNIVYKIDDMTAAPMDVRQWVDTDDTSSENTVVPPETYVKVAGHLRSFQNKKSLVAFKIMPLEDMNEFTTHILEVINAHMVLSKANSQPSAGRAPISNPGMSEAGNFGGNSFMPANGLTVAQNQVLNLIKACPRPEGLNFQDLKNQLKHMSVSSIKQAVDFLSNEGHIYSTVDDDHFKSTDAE
# Results are given in words; binding and its absence hold for the method and conditions named. For some of these results: In cells and extracts the contact can be indirect. Where a sequence is shown, tags or fusion partners need not be part of it. Some binding calls cover weakened binding; strength is not graded here.
# Key:
# FLAG-NSMF-ΔD2 (HeLa) = molecular target: T1, FLAG-NSMF-ΔD2 (HeLa) (UniProt Q6X4W1); test: co-IP; HeLa cells transfected with FLAG-NSMF WT or ΔD2; details in the Supplementary Data
# T1 sequence: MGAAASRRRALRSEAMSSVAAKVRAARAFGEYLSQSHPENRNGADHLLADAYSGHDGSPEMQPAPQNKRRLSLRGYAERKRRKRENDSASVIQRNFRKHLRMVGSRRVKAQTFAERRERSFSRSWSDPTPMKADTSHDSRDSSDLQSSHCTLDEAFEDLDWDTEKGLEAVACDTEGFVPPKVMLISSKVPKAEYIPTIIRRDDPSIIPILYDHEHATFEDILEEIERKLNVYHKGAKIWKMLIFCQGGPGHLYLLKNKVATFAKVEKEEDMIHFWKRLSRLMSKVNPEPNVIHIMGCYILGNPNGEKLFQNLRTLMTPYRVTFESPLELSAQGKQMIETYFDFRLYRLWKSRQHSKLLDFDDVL
# [1] = molecular target: T2, full-length NSMF tagged with 3×FLAG at the N-terminus and eGFP at the C-terminus, purified (UniProt Q6X4W1); test: co-IP; in vitro IP of purified proteins: incubated in NETN buffer at 4°C for 1 h, anti-GFP-coupled protein G agarose, western blotting of RPA subunits; both purified
# T2 sequence: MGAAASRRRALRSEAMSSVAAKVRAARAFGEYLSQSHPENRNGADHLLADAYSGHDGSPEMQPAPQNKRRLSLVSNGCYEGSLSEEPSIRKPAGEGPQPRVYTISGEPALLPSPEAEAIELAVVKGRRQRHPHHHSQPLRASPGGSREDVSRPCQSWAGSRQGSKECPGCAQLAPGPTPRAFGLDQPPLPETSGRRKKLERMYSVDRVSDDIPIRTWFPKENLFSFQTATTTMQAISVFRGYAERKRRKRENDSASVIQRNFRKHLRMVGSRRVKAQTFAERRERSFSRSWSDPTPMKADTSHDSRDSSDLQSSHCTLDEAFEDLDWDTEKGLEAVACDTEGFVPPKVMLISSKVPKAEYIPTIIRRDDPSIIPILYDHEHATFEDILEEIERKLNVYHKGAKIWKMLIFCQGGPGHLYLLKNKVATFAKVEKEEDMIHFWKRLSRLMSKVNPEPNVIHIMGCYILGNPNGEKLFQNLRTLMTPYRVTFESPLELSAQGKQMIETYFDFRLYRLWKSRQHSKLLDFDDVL
Substance,binding (FLAG-NSMF-ΔD2 (HeLa)),binding [1]
"RPA32, endogenous (from UniProt P15927 1-270)",no binding,
"RPA trimer consisting of the RPA70, RPA32 and RPA14 subunits, purified (from UniProt P27694 1-616; P15927 1-270; P35244 1-121) (complex)",,binds
"individual RPA32 subunit, purified (from UniProt P15927 1-270) (other; other documents disagree on this pair)",,no binding
purified RPA70 subunit (purchased) (from UniProt P27694 1-616),,no binding
